Measured values reported in patent publication US9187529B2 (priority 2011, dated 2015).
“And” between values parts separate entries of the source, which are not always exact repeats. Equal values may be shown once. Part of at least one peptide drawing is inferred or uncertain, most often the ends. Peptide text beside a SMILES is read from it.

Key:
S. aureus MN8 = assay type: cell-based, Staphylococcus aureus
[1] = system: TSST-1 production of S. aureus MN8; assay type: cell-based, Staphylococcus aureus

| SMILES | antimicrobial activity (S. aureus MN8) | improvement in TSST-1 inhibition compared to the original Hbg-1 peptide [1] | inhibition of TSST-1 production [1] | viable count (10^8 CFU/mL) (S. aureus MN8) |
| --- | --- | --- | --- | --- |
| CC(C)C[C@H](NC(=O)[C@H](CC(=O)O)NC(=O)[C@H](CCCCN)NC(=O)[C@H](Cc1c[nH]cn1)NC(=O)[C@@H]1CCCN1C(=O)[C@H](CCCCN)NC(=O)[C@H](Cc1ccc(O)cc1)NC(=O)[C@@H](NC(=O)[C@H](CCCCN)NC(=O)[C@H](CCCCN)NC(=O)[C@H](CCCCN)NC(=O)[C@@H]1CCCN1C(=O)[C@H](CCCCN)NC(=O)[C@@H](N)CO)[C@@H](C)O)C(=O)N[C@@H](CO)C(=O)N[C@@H](Cc1c[nH]cn1)C(=O)NCC(=O)N[C@@H](CO)C(=O)N[C@@H](C)C(=O)N[C@@H](CCCCN)C(=O)N[C@@H](CCCCN)C(=O)N[C@@H](CCCCN)C(=O)O [SP-2] (H-SKPKKKTYKPHKDLSHGSAKKK-OH) | without affecting bacterial growth |  |  |  |
| C[C@H](NC(=O)[C@H](CO)NC(=O)[C@H](CCCCN)NC(=O)[C@H](Cc1c[nH]cn1)NC(=O)[C@H](CO)NC(=O)[C@H](CCCCN)NC(=O)[C@H](CCCCN)NC(=O)[C@H](CCCCN)NC(=O)[C@H](Cc1c[nH]cn1)NC(=O)[C@@H]1CCCN1C(=O)[C@H](CCCCN)NC(=O)[C@H](Cc1ccc(O)cc1)NC(=O)[C@H](CCCCN)NC(=O)[C@H](CCCCN)NC(=O)[C@H](CCCCN)NC(=O)[C@H](CCCCN)NC(=O)[C@@H]1CCCN1C(=O)[C@H](CCCCN)NC(=O)[C@@H](N)CO)C(=O)N[C@@H](CCCCN)C(=O)N[C@@H](CCCCN)C(=O)N[C@@H](CCCCN)C(=O)O [SP-1] (H-SKPKKKKYKPHKKKSHKSAKKK-OH) | without affecting bacterial growth | 3 log | 50% | 43 and 50 and 30 and 46 and 25 |
